For one molecule, binding results are on record in doi:10.1101/2024.12.19.629515.

Protein sequences, listed by entry. Tags and fused reporters are not part of them. Lines headed by an entry give the natural chain unless they say otherwise; changes in a name come on top. Chains listed by the source or under a name are the forms on record and can include a tag or linker. Residues count along the entry.
BRI1 in pBT3-STE (split-ubiquitin bait) (O22476, residues 24-1196): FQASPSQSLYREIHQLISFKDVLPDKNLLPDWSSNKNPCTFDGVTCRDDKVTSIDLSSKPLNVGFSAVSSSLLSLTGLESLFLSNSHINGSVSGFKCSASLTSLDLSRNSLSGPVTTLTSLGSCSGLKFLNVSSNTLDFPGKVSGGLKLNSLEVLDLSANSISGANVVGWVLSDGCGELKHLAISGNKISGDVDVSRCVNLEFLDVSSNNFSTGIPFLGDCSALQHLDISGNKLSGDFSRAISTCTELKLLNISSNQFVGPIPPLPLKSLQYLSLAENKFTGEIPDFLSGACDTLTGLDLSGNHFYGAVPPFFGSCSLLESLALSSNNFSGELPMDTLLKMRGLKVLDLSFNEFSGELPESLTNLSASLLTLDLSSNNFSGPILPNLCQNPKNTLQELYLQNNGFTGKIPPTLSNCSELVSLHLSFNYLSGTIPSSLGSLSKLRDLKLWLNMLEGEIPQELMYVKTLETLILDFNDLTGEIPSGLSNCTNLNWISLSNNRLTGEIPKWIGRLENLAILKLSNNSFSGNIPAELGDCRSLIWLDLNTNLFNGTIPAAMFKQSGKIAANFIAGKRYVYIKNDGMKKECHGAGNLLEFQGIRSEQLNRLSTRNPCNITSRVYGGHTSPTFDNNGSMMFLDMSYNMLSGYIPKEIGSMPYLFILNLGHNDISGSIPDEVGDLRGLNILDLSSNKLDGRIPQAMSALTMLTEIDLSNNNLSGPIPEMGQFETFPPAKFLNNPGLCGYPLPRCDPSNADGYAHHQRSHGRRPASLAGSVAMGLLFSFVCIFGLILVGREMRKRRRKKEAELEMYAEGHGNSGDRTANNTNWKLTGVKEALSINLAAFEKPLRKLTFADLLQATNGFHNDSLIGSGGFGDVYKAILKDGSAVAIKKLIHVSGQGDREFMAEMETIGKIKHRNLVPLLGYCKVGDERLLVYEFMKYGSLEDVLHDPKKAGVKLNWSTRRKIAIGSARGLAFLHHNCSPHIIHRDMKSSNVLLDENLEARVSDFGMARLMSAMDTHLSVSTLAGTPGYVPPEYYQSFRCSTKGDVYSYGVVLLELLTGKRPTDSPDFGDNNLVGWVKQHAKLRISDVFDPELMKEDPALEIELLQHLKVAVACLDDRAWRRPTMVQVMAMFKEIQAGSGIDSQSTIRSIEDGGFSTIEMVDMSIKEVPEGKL
BRI1^S858A;T872A in pBT3-STE (split-ubiquitin bait) (O22476, form named): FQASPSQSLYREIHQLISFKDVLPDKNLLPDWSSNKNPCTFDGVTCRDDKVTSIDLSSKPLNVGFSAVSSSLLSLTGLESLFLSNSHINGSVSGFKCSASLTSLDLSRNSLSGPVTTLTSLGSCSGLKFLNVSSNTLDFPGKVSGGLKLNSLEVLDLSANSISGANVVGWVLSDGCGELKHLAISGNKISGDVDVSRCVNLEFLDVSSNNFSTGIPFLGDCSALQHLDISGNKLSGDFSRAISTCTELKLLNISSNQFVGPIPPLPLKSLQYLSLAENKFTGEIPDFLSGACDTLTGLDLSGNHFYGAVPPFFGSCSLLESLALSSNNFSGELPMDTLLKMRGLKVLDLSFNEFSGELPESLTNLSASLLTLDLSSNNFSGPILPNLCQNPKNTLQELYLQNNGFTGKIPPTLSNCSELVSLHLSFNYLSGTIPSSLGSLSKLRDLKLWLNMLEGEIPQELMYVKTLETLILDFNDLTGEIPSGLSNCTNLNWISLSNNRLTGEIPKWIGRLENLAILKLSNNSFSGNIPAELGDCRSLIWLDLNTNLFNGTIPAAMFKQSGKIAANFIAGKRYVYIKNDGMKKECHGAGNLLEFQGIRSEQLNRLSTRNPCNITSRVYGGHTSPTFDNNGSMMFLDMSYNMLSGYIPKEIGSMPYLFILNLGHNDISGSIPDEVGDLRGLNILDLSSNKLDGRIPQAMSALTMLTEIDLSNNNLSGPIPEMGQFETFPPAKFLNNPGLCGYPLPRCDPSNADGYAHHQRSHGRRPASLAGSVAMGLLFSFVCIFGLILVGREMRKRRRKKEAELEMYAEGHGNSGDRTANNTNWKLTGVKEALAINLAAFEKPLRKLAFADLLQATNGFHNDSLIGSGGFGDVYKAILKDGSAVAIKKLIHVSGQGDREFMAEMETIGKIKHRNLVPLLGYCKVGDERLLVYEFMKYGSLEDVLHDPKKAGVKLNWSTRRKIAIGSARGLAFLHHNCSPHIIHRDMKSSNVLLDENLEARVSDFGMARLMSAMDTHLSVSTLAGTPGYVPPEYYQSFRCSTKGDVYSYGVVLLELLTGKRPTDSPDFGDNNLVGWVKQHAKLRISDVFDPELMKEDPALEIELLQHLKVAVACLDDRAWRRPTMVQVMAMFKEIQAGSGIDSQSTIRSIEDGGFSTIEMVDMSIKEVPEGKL

For assay [1], the target named is BRI1 in pBT3-STE (split-ubiquitin bait) (Arabidopsis thaliana) (UniProt O22476). Kind of assay: two-hybrid.
In assay [2] the target is BRI1^S858A;T872A in pBT3-STE (split-ubiquitin bait) (Arabidopsis thaliana) (UniProt O22476). In words: two-hybrid.

These are yes or no findings as the source states them, for the method shown. Some binding calls cover weakened binding; strength is not graded here.

B1: GRF6 in pPR3-N (split-ubiquitin prey) (protein, UniProt P48349 1-248)
chain: MAATLGRDQYVYMAKLAEQAERYEEMVQFMEQLVTGATPAEELTVEERNLLSVAYKNVIGSLRAAWRIVSSIEQKEESRKNDEHVSLVKDYRSKVESELSSVCSGILKLLDSHLIPSAGASESKVFYLKMKGDYHRYMAEFKSGDERKTAAEDTMLAYKAAQDIAAADMAPTHPIRLGLALNFSVFYYEILNSSDKACNMAKQAFEEAIAELDTLGEESYKDSTLIMQLLRDNLTLWTSDMQEQMDEA
B1: the binding result in assay [1] is listed as “binds”; in assay [2], “no binding”.
